Results: PMC3284570
Results are given in words; binding and its absence hold for the method and conditions named. In cells and extracts the contact can be indirect. Some entries that bind do so weakly or less than the wild type. For some of these results: Sequences can lack the tags named with a protein.

By UniProt entry, the sequences of proteins in these tests, tags left out.
UniProt Q09472: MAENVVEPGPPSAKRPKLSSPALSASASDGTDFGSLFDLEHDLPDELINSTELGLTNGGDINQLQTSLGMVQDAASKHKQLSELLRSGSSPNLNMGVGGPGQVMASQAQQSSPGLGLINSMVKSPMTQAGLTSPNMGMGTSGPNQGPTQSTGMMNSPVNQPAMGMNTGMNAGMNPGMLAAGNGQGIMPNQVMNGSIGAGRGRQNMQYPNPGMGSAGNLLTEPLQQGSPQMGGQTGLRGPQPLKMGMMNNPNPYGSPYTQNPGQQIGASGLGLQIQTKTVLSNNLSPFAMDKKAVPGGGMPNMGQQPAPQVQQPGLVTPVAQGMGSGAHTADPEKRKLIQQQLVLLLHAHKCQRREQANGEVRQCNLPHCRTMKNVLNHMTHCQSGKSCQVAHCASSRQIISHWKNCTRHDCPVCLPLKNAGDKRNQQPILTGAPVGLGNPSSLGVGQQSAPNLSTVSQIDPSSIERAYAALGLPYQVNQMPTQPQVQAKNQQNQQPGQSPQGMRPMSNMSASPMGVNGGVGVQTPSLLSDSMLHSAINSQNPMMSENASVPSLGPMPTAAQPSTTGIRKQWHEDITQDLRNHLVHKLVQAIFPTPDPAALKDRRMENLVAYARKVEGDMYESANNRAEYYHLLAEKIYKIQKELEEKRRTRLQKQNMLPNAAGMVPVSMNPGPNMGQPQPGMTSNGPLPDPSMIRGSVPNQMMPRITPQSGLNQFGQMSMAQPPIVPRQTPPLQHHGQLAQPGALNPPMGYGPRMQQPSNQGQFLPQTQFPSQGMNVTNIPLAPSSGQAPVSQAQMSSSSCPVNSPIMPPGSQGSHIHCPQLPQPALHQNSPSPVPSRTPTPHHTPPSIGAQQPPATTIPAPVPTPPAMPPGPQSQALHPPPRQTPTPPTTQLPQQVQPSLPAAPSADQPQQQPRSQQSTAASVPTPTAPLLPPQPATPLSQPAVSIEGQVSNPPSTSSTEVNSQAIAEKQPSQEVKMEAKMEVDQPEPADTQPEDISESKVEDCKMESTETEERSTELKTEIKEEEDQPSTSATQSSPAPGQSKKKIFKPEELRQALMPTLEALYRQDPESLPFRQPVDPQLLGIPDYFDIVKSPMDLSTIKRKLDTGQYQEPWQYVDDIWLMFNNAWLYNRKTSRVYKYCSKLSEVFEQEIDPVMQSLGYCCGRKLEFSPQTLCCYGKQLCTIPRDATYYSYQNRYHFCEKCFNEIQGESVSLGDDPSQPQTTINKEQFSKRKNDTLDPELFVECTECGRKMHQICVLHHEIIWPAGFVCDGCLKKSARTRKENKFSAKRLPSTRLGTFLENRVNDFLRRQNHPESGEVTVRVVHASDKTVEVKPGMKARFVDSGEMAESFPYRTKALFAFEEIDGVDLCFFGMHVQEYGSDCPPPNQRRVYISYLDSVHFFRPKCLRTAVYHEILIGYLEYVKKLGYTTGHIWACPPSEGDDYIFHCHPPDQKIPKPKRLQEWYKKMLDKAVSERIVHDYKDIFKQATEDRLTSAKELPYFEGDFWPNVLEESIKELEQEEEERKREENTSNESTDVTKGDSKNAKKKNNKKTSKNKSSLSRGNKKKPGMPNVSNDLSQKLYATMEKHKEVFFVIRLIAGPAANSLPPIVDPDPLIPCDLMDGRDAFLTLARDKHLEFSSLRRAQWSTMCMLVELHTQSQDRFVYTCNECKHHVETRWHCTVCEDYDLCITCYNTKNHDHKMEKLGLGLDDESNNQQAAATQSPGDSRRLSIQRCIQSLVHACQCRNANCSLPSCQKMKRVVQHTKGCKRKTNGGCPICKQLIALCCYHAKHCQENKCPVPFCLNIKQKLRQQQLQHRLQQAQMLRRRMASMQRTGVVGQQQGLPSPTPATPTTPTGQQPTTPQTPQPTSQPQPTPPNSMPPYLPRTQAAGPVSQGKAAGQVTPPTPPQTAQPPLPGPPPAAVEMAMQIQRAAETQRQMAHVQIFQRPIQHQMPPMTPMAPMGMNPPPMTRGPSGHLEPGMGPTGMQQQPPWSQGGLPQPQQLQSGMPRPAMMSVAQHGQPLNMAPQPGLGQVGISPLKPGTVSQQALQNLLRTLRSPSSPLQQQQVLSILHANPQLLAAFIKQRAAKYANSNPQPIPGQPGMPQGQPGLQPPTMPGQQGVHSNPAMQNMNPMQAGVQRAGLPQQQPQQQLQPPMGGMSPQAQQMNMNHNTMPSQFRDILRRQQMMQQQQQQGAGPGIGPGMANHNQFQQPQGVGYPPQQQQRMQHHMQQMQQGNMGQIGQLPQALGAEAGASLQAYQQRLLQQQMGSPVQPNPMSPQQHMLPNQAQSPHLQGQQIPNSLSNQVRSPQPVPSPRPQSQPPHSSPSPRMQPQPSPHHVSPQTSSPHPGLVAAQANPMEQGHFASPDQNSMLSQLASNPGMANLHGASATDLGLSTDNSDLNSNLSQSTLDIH
UniProt Q92831: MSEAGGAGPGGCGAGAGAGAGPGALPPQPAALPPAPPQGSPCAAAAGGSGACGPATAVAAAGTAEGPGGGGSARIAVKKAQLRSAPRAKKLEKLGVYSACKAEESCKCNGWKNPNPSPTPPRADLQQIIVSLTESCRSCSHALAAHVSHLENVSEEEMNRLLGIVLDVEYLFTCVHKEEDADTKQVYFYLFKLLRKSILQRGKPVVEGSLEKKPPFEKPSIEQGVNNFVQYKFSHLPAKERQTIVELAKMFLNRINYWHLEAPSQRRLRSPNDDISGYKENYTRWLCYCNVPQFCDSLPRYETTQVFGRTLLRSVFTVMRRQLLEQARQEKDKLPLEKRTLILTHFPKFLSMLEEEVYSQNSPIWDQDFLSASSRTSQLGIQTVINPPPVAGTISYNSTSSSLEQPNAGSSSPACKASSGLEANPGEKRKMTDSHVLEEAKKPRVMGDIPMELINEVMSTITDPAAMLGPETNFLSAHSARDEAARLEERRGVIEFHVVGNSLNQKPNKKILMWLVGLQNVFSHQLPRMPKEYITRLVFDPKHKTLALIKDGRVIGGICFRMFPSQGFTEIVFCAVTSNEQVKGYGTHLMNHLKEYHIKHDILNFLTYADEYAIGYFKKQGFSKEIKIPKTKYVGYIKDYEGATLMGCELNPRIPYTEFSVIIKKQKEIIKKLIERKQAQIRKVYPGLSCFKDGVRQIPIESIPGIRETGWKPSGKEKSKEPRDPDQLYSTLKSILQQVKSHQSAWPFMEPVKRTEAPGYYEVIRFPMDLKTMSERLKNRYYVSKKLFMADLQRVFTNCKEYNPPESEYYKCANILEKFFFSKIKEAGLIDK

Legend:
[1] = biological target: P300 (precipitated with a P300-specific antibody or found on the promoter probe; source not stated) (human) (UniProt Q09472); assay: co-IP; TNE lysates of transfected HuCCT-1 cells; P300 immunoprecipitated, complexes collected on protein G Dynabeads, Western blot; with or without TGF-beta1 (5 ng/mL, 24 hrs)
Halo-tagged ZEB1 (human) = biological target: T1, Halo-tagged ZEB1 (human) (UniProt P37275); assay: biotinylated oligonucleotide precipitation (DNA pull-down); HKMG lysates of co-transfected HuCCT-1 cells incubated 12 hours with 5'-biotinylated double-stranded wild type or mutated E-box/Z-box probes of the miR-200c/141 promoter and poly(dI-dC); streptavidin-agarose beads, Western blot; with or without TGF-beta1 (5 ng/mL, 24 hrs)
T1 sequence: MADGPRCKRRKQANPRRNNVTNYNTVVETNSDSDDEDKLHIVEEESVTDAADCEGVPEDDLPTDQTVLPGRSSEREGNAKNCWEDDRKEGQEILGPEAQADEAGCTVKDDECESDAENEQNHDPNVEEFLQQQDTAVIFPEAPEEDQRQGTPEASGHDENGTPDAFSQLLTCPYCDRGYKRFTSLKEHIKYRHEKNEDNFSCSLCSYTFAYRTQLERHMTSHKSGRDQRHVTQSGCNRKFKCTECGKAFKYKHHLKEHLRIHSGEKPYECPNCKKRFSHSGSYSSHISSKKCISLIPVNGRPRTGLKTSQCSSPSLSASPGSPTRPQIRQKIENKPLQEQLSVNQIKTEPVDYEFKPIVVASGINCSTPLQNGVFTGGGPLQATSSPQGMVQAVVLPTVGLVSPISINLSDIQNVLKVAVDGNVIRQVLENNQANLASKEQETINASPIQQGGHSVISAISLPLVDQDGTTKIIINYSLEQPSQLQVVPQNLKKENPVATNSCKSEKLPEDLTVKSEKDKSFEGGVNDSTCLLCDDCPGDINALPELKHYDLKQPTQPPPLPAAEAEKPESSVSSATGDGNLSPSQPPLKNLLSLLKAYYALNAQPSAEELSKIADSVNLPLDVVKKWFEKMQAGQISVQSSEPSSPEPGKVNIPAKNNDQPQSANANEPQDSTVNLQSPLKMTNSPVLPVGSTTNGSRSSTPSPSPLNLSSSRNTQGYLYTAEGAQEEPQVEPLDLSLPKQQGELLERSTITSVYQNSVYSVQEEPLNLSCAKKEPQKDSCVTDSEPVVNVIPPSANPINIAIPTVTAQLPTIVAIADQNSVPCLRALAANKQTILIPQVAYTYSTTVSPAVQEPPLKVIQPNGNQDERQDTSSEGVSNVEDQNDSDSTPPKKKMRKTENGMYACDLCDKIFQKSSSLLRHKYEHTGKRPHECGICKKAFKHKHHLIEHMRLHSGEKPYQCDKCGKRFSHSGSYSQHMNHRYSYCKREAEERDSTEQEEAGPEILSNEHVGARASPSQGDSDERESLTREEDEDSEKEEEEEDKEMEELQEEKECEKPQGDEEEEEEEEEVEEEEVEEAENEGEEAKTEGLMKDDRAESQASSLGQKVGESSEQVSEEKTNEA

HA-tagged P300 (human) = HA-tagged P300 (human) (UniProt Q09472); assay: co-IP; TNE lysates of transfected HuCCT-1 cells; P300 immunoprecipitated, complexes collected on protein G Dynabeads, Western blot; with or without TGF-beta1 (5 ng/mL, 24 hrs)

| Molecule | binding [1] | binding (Halo-tagged ZEB1 (human)) | binding (HA-tagged P300 (human)) |
| --- | --- | --- | --- |
| Flag-tagged PCAF (from UniProt Q92831 1-832) | binds | binds | – |
| P300 (precipitated with a P300-specific antibody or found on the promoter probe; source not stated) (from UniProt Q09472 1-2414) | – | binds | – |
| ZEB1 (co-immunoprecipitated with P300; source not stated) (protein, UniProt P37275 1-1124) MADGPRCKRRKQANPRRNNVTNYNTVVETNSDSDDEDKLHIVEEESVTDAADCEGVPEDDLPTDQTVLPGRSSEREGNAKNCWEDDRKEGQEILGPEAQADEAGCTVKDDECESDAENEQNHDPNVEEFLQQQDTAVIFPEAPEEDQRQGTPEASGHDENGTPDAFSQLLTCPYCDRGYKRFTSLKEHIKYRHEKNEDNFSCSLCSYTFAYRTQLERHMTSHKSGRDQRHVTQSGCNRKFKCTECGKAFKYKHHLKEHLRIHSGEKPYECPNCKKRFSHSGSYSSHISSKKCISLIPVNGRPRTGLKTSQCSSPSLSASPGSPTRPQIRQKIENKPLQEQLSVNQIKTEPVDYEFKPIVVASGINCSTPLQNGVFTGGGPLQATSSPQGMVQAVVLPTVGLVSPISINLSDIQNVLKVAVDGNVIRQVLENNQANLASKEQETINASPIQQGGHSVISAISLPLVDQDGTTKIIINYSLEQPSQLQVVPQNLKKENPVATNSCKSEKLPEDLTVKSEKDKSFEGGVNDSTCLLCDDCPGDINALPELKHYDLKQPTQPPPLPAAEAEKPESSVSSATGDGNLSPSQPPLKNLLSLLKAYYALNAQPSAEELSKIADSVNLPLDVVKKWFEKMQAGQISVQSSEPSSPEPGKVNIPAKNNDQPQSANANEPQDSTVNLQSPLKMTNSPVLPVGSTTNGSRSSTPSPSPLNLSSSRNTQGYLYTAEGAQEEPQVEPLDLSLPKQQGELLERSTITSVYQNSVYSVQEEPLNLSCAKKEPQKDSCVTDSEPVVNVIPPSANPINIAIPTVTAQLPTIVAIADQNSVPCLRALAANKQTILIPQVAYTYSTTVSPAVQEPPLKVIQPNGNQDERQDTSSEGVSNVEDQNDSDSTPPKKKMRKTENGMYACDLCDKIFQKSSSLLRHKYEHTGKRPHECGICKKAFKHKHHLIEHMRLHSGEKPYQCDKCGKRFSHSGSYSQHMNHRYSYCKREAEERDSTEQEEAGPEILSNEHVGARASPSQGDSDERESLTREEDEDSEKEEEEEDKEMEELQEEKECEKPQGDEEEEEEEEEVEEEEVEEAENEGEEAKTEGLMKDDRAESQASSLGQKVGESSEQVSEEKTNEA | – | – | binds |
